Assay results published in paper PMC8278493.
These are yes or no findings as the source states them, for the method shown. In cells and extracts the contact can be indirect. Some results given as binding are weak or reduced against the parent protein; the word gives no strength. For part of these data: Where a sequence is shown, tags or fusion partners need not be part of it. Values belong to the substance of their own block, whether it stands above or below them.

By UniProt entry, the sequences of proteins in these tests, tags left out. Where a name states a change or a piece, a line headed by the entry shows the natural chain unless it says otherwise.
UniProt O43156: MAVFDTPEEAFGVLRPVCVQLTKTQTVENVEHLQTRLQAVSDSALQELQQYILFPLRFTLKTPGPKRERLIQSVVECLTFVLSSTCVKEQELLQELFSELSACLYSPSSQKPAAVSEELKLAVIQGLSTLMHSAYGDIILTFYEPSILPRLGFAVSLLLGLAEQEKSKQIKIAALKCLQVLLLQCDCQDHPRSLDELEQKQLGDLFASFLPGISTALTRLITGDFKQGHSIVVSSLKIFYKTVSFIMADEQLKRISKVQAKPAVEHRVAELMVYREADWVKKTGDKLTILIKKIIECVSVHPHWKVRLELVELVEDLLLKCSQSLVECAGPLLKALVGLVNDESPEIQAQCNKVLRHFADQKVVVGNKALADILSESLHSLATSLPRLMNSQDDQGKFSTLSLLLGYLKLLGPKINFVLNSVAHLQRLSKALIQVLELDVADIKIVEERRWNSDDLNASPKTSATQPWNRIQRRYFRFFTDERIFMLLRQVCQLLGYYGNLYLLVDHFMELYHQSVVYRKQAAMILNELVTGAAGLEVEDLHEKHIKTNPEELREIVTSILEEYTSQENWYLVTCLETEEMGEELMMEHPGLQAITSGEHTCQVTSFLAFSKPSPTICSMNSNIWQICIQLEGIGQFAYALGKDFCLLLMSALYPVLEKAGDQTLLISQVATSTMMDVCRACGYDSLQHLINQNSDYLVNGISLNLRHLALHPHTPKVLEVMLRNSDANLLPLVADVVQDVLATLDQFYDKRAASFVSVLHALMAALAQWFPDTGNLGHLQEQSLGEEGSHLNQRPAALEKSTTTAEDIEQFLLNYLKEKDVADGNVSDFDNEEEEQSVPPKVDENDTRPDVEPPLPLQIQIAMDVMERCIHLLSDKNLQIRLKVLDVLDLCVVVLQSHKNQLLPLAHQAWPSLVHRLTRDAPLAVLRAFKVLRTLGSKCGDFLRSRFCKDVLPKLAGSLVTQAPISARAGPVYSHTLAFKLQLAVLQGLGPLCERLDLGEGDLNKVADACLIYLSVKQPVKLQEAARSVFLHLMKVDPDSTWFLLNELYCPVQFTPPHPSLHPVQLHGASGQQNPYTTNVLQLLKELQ

Tests used:
[1] = target: Strep-TTI1(468-1089), human (human) (UniProt O43156); assay: pull-down; strep-tag pull-down from Sf9 cells co-expressing strep-TTI1 constructs with GST-TTI2 (Figure S4)
[2] = target: T1, GST-tagged full-length human TTI2 (human) (UniProt Q6NXR4); assay: pull-down; glutathione beads, from Sf9 cells co-expressing GST-TTI2 constructs with TTI1 constructs
T1 sequence: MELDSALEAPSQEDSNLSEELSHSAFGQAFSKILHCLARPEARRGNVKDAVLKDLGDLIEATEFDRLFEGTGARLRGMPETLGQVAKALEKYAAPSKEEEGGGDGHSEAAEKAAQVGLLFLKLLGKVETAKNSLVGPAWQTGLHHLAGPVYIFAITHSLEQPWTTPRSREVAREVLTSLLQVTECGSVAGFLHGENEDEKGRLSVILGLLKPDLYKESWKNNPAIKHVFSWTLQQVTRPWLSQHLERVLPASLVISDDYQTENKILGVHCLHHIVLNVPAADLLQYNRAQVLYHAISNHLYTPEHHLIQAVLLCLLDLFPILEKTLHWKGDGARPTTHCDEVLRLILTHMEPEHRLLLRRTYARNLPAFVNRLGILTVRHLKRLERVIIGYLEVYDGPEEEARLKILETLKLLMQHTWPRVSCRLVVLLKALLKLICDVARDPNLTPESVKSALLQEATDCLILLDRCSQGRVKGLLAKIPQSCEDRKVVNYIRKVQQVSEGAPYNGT

[3] = target: T2, GST-TTI2(1-193), human (human) (UniProt Q6NXR4); assay: as above
T2 sequence: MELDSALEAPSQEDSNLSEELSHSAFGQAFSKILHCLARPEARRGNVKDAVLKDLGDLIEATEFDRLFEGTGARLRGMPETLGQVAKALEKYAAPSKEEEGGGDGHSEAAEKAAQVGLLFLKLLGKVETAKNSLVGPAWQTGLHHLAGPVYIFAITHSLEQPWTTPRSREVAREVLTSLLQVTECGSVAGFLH

binding [1]: binds
Substance: GST-tagged full-length human TTI2 (from UniProt Q6NXR4 1-508)

binding [2]: binds
Substance: Strep-TTI1(468-1089), human (from UniProt O43156 468-1089) (domain or fragment)

binding [3]: binds
Substance: human TTI1, full length, untagged (from UniProt O43156 1-1089)
